# The supplement of paper PMC11150407
# The campaign covered roughly 3,000 compounds. About 45 (2%) showed an effect of 50% or more. Some of the results follow.
# System: MOLM1 and UCSD/AML1 (averaged)
# Assay: cell viability relative to DMSO control (POC); higher = less growth inhibition
# Conditions: 1 µM; 72 h
# Procedure: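 Primary viability screen in the 3q26 EVI1-high AML cell lines MOLM1 and UCSD/AML1, compounds at 1 uM for 72 h. ATP CellTiter-Glo read-out given as percent viable over DMSO control (POC), averaged over duplicates. This mapping covers the TimTec NDL-3000 natural derivative library, whose compounds are identified by TimTec catalogue codes (ST...).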
row,Structure (SMILES),cell viability
1,CCOc1ccc(NC(=O)Cn2c(=O)cc(C(=O)N3CCc4ccccc4C3)c3ccccc32)cc1,109%
2,Cc1cc(=O)[nH]c2ccc(S(=O)(=O)N3CCCc4ccccc43)cc12,97.2%
3,O=c1[nH]c(=O)n(-c2nc(-c3ccccc3)oc2-c2ccccc2)cc1Cl,99.5%
4,CCc1ccc(NC(=O)CSc2nc3c(=O)[nH]cnc3n2CC)cc1,94.6%
5,COc1cccc(C2NC(CCSC)(C(=O)O)C3C(=O)N(C(C)C)C(=O)C23)c1O (centres undefined),103%
6,O=C(N/N=C\c1cc(Br)cc(Br)c1OC(=O)c1cccc(F)c1)c1ccc2c(c1)OCO2,64.1%
7,C[C@@H]1CC2C3CCC4=CC(=O)C=C[C@]4(C)[C@@]3(F)[C@@H](O)C[C@]2(C)[C@@]1(O)C(=O)COC(=O)c1cccc(S(=O)(=O)O)c1 (some centres undefined),78.9%
8,CCOc1cc(C2C(C(=O)OCC(C)C)=C(C)NC3=C2C(=O)CC(c2ccc(Cl)cc2)C3)ccc1O (centres undefined),96.6%
9,COc1ccc(C(=O)/C=C/c2ccccc2)c(O)c1,101%
10,O=C(CCNc1ccc(Br)cc1)c1ccc2c(c1)OCO2,88.7%
11,CCOc1ccc2oc(=O)cc(CN3CCN(CC(=O)NC(C)(C)C)CC3)c2c1,101%
12,Cn1c(=O)c2c(nc3n(CC(O)c4ccccc4)c(C45CC6CC(CC(C6)C4)C5)cn23)n(C)c1=O (centres undefined),86.2%
13,COc1cc(OC)cc(C(=O)Nc2ccc3ncn(C)c3c2)c1,98.6%
14,CCOc1ccc2oc(=O)cc(CN3CCN(CC(=O)Nc4ccc(F)c(Cl)c4)CC3)c2c1,97.9%
15,O=C(O)C(Cc1c[nH]c2ccccc12)Nc1ccc([N+](=O)[O-])cc1[N+](=O)[O-] (centres undefined),99.5%
16,Cc1ccc(N2C3=C(C(=O)CC(C)(C)C3)C(c3ccc(O)cc3)C3=C2CC(C)(C)CC3=O)cc1,89.8%
17,O=C(Nc1cccc(C(F)(F)F)c1)c1cc2ccccc2oc1=O,107%
18,CCCNC(=O)c1cc(=O)n(CC(=O)Nc2ccc(Cl)cc2)c2ccccc12,105%
19,CCCCCCCOC(=O)C1=C(C)NC(=O)NC1c1cc(Br)c(O)c(OC)c1 (centres undefined),104%
20,O=C(CSc1nccc(-c2cccs2)n1)c1ccc2c(c1)OCCO2,92.3%
21,COC(=O)NC(CCc1ccccc1)C(=O)O (centres undefined),103%
22,N#CC1=C(N)Oc2c(c(=O)[nH]c3ccccc23)C1c1cccc(O)c1 (centres undefined),92.8%
23,COc1cc(NC(=O)Cn2c(=O)cc(C(=O)N3CCc4ccccc4C3)c3ccccc32)cc(OC)c1,95.4%
24,CCc1ccc(C2Nc3ccc4ccccc4c3-c3c2c(=O)oc2ccccc32)cc1 (centres undefined),105%
25,COC(=O)C1=C(C)Nc2sc(C(N)=O)c(N)c2C1c1cc(OC)c(OC)c(OC)c1 (centres undefined),99.7%

row,Structure (SMILES),cell viability
1,COc1cc(C(=O)Cc2ccccc2)c(O)cc1O,100%
2,Cc1cc(C)cc(NC(=O)C2=Cc3ccccc3OC2)c1,92.7%
3,COc1ccc2oc(=O)cc(CN3CCN(CC#N)CC3)c2c1,98.8%
4,COc1ccc(/C=C/C(=O)c2ccc(O)cc2)cc1CSc1nc2ccccc2[nH]1,94.2%
5,Cc1[nH]c2ccccc2c1CCNC(=O)/C(=C/c1ccccc1)NC(=O)c1ccccc1Br,84.6%
6,CCOc1cc(C2NC(=O)NC(C)=C2C(=O)OC2CCCCCCC2)ccc1O (centres undefined),89.8%
7,COc1cccc(C2CC(=O)c3ccccc3O2)c1OC (centres undefined),98.9%
8,COc1cc(C(=O)NCCOc2ccccc2C)cc(OC)c1OC,96.6%
9,O=C(/C=C/c1ccc(NC(=O)c2cc(NC(=O)C(c3ccccc3)c3ccccc3)cc(NC(=O)C(c3ccccc3)c3ccccc3)c2)cc1)c1ccccc1,94.6%
10,O=C(CSc1cn[nH]n1)c1ccc2c(c1)OCCO2,101%
11,CCc1ccc(Oc2coc3cc(OCC(=O)OC)ccc3c2=O)cc1,103%
12,COC(=O)COc1ccc(OC)c(NC(=O)c2cc(=O)n(C)c(=O)n2C)c1,96.5%
13,COc1cc(C(=N)SC)cc(OC)c1OC,105%
14,CC(C)(C)c1ccc(S(=O)(=O)NC(Cc2c[nH]c3ccccc23)C(=O)O)cc1 (centres undefined),96.3%
15,COc1ccc(C(=O)CC2OC(=O)c3c2ccc(OC)c3OC)c(O)c1 (centres undefined),92.7%
16,COC(=O)c1ccc2c(c1)C(=O)/C(=C/c1ccc(O)cc1)O2,104%
17,CCOc1ccccc1NC(=O)C(CC)Sc1nc2c(=O)[nH]cnc2n1C (centres undefined),99.1%
18,Cc1cccc(C)c1NC(=O)Cn1c(=O)cc(C(=O)NCc2ccccc2)c2ccccc21,89.3%
19,CSCCC(NC(=O)c1nc(-c2ccccc2)n(-c2ccc(C)cc2)n1)C(=O)O (centres undefined),104%
20,Cc1cc2n(n1)C(c1coc3ccccc3c1=O)Nc1ccccc1-2 (centres undefined),97.7%
21,Cc1oc(-c2cccc(Cl)c2)nc1CSc1nc2c(=O)[nH]cnc2n1C,90.7%
22,COc1ccc(C(=O)Nc2ccc(Br)cc2C)cc1OC,91.2%
23,Cc1oc(-c2ccccc2)nc1CSc1nc2c(=O)[nH]cnc2n1C,112%
24,Cc1ccc2c(CN3CCN(Cc4ccc(Cl)cc4)CC3)cc(=O)oc2c1,96.2%
25,NC(CO)C(=O)Nc1ccc2ccccc2c1 (centres undefined),94.4%

row,Structure (SMILES),cell viability
1,O=C(CCNc1ccc2c(c1)oc1ccccc12)c1ccc2c(c1)OCO2,99.4%
2,Cc1ccc(S(=O)(=O)NC(Cc2ccccc2)C(=O)O)cc1 (centres undefined),100%
3,COc1ccccc1C(=O)N/C(=C\c1ccco1)C(=O)NCCc1c(C)[nH]c2ccccc12,93.8%
4,COC(=O)C1CC23CCC[N+]4(C)CCC5(c6ccccc6N(C(C)=O)C15CC2)C34 (centres undefined),115%
5,Cc1cc(C)c(NC(=O)Cn2c(=O)cc(C(=O)N3CCOCC3)c3ccccc32)c(C)c1,100%
6,CC(C)OC(=O)C1=C(N)Oc2c(oc(CO)cc2=O)C1c1c(F)cccc1Cl (centres undefined),98.2%
7,Cc1cc2c(C(C)C)c(O)c(O)c(C=NCC34CC5CC(C)(CC(C)(C5)C3)C4)c2c(O)c1-c1c(C)cc2c(C(C)C)c(O)c(O)c(C=NC34CC5CC(C)(CC(C)(C5)C3)C4)c2c1O,109%
8,CC(=O)NC(Cc1c[nH]c2ccccc12)C(=O)NC1CC1 (centres undefined),102%
9,CCCc1[nH]nc2c1C(c1cc(OC)c3c(c1)OCO3)C(C#N)=C(N)O2 (centres undefined),99.2%
10,N#Cc1cccc(NC(=O)Cn2c(=O)cc(C(=O)N3CCc4ccccc4C3)c3ccccc32)c1,90.2%
11,CCOc1ccc2oc(=O)cc(CN3CCN(Cc4nc(-c5ccccc5OC)oc4C)CC3)c2c1,96.9%
12,N#CC1=C(N)Oc2[nH]c(=O)[nH]c(=O)c2C1c1cccc2ccccc12 (centres undefined),100%
13,CCOc1ccccc1Oc1c(C(F)(F)F)oc2c(CN3CCOCC3)c(O)ccc2c1=O,99.2%
14,O=C(CC1(O)C(=O)N(Cc2ccccc2F)c2ccccc21)c1ccc2c(c1)OCO2 (centres undefined),99.5%
15,O=C(Cn1c(=O)cc(C(=O)NCc2ccccc2)c2ccccc21)Nc1cccc(Br)c1,88.9%
16,O=c1ccoc2ccc(F)cc12,93.3%
17,O=C(O)CN(CC(=O)O)Cc1cc2c(c(O)c1O)C(=O)c1ccccc1C2=O,91.6%
18,CC(=O)OCC1OC(OC(C)=O)C(OC(C)=O)C(OC(C)=O)C1OC(C)=O (centres undefined),109%
19,CCC(CC)c1nc(Nc2ccc(C(=O)OC)cc2)c2ccccc2n1,70.5%
20,COc1ccc(-c2cc(-c3ccc(C)cc3)c(C#N)c(=O)[nH]2)cc1OC,101%
21,COC(=O)c1c(NC(=O)COC(=O)CN2C(=O)c3c(Cl)c(Cl)c(Cl)c(Cl)c3C2=O)sc2c1CCC(C)C2 (centres undefined),107%
22,CC(C)OC(=O)C1=C(N)Oc2c(oc(CO)cc2=O)C1c1ccc(Cl)cc1 (centres undefined),96.2%
23,O=c1[nH]c(NCCCO)c(Br)c(=O)[nH]1,103%
24,CCCCC(NC(=O)CCC(=O)O)C(=O)O (centres undefined),97.4%
25,CCOC(=O)/C(C#N)=C/c1ccc(Cl)cc1,102%

row,Structure (SMILES),cell viability
1,Cc1ccc2[nH]c(C)c(CCNC(=O)c3cc(S(=O)(=O)N(C)C)c(Cl)cc3Cl)c2c1,94.4%
2,CCc1cccc(C)c1NC(=O)CSc1nc2c(=O)[nH]cnc2n1C,91.6%
3,C#CCSc1nc(N)c2c(n1)OC(N)=C(C#N)C2c1cccc(F)c1 (centres undefined),74.4%
4,COc1ccc(N2C(=O)c3ccccc3NC2c2ccc(OC)cc2O)cc1 (centres undefined),110%
5,Cc1ccc(/C=C2\Oc3cc(O)ccc3C2=O)cc1,98.7%
6,Cc1cc(OCC(=O)Nc2ccc(-c3cc4ccccc4oc3=O)c(C)c2)ccc1Cl,98.7%
7,COc1cc2c(=O)n(-c3ccccc3)c(SCC(=O)N3CCCC3)nc2c(OC)c1OC,105%
8,COc1cc(C2C(C#N)=C(N)OC3=C2C(=O)CCC3)cc2c1OCO2 (centres undefined),116%
9,O=c1[nH]c2ccccc2c(=O)n1CCO,108%
10,COc1cc(/C=N/NC(=O)CCNc2n[nH]c(=O)[nH]c2=O)ccc1OCc1ccccc1,94.3%
11,CCCCCCCCCSc1nc2c(c(=O)[nH]c(=O)n2C)n1Cc1cccc(C)c1,107%
12,COc1cccc(-c2nc(CSc3nc4c(=O)[nH]c(C)nc4n3C)c(C)o2)c1OC,97.2%
13,COc1ccc(OC)c(NC(=O)c2cc(OC)c(OC)c(OC)c2)c1,85.9%
14,O=C(O)/C=C/c1cccc([N+](=O)[O-])c1,103%
15,CCOc1cc(C2C(C(=O)OCCOC)=C(C)NC3=C2C(=O)CC(c2ccc(Cl)cc2)C3)cc(Br)c1O (centres undefined),98.2%
16,COc1cccc(NC(=O)Cn2c(=O)cc(C(=O)N3CCOCC3)c3ccccc32)c1,104%
17,CCN(C(=O)c1ccc(OC)c(OC)c1)c1ccccc1C,83.1%
18,O=C1C2OCC(O2)[C@@H]2[C@@H]1[C@@H]1c3ccccc3C=CN1[C@H]2C(=O)c1ccc(F)cc1 (some centres undefined),90.3%
19,Cc1cc(=O)n2c3c(cccc13)CCC2,97.9%
20,Cc1ccc(NC(=O)CSc2nc3c(=O)[nH]cnc3n2C)c(Cl)c1,91.1%
21,COc1cc(/C=N/NC(=O)c2ccccc2N)ccc1O,107%
22,O=C(Cn1c(=O)sc2cc(S(=O)(=O)N3CCOCC3)ccc21)N1CCc2ccccc2C1,101%
23,COCCOC(=O)c1c(C)n(-c2cccc(Cl)c2)c2c1cc(O)c1ccccc12,98.8%
24,C/C(=N\N=C1\C(=O)Nc2ccccc21)c1c(O)c2ccccc2n(-c2ccccc2)c1=O,100%

# 20 entries already listed, arranged by formula weight, low to high:
row,Structure (SMILES),cell viability
14,O=C(O)/C=C/c1cccc([N+](=O)[O-])c1,103%
19,Cc1cc(=O)n2c3c(cccc13)CCC2,97.9%
9,O=c1[nH]c2ccccc2c(=O)n1CCO,108%
5,Cc1ccc(/C=C2\Oc3cc(O)ccc3C2=O)cc1,98.7%
21,COc1cc(/C=N/NC(=O)c2ccccc2N)ccc1O,107%
8,COc1cc(C2C(C#N)=C(N)OC3=C2C(=O)CCC3)cc2c1OCO2 (centres undefined),116%
13,COc1ccc(OC)c(NC(=O)c2cc(OC)c(OC)c(OC)c2)c1,85.9%
3,C#CCSc1nc(N)c2c(n1)OC(N)=C(C#N)C2c1cccc(F)c1 (centres undefined),74.4%
2,CCc1cccc(C)c1NC(=O)CSc1nc2c(=O)[nH]cnc2n1C,91.6%
4,COc1ccc(N2C(=O)c3ccccc3NC2c2ccc(OC)cc2O)cc1 (centres undefined),110%
18,O=C1C2OCC(O2)[C@@H]2[C@@H]1[C@@H]1c3ccccc3C=CN1[C@H]2C(=O)c1ccc(F)cc1 (some centres undefined),90.3%
16,COc1cccc(NC(=O)Cn2c(=O)cc(C(=O)N3CCOCC3)c3ccccc32)c1,104%
24,C/C(=N\N=C1\C(=O)Nc2ccccc21)c1c(O)c2ccccc2n(-c2ccccc2)c1=O,100%
12,COc1cccc(-c2nc(CSc3nc4c(=O)[nH]c(C)nc4n3C)c(C)o2)c1OC,97.2%
11,CCCCCCCCCSc1nc2c(c(=O)[nH]c(=O)n2C)n1Cc1cccc(C)c1,107%
6,Cc1cc(OCC(=O)Nc2ccc(-c3cc4ccccc4oc3=O)c(C)c2)ccc1Cl,98.7%
7,COc1cc2c(=O)n(-c3ccccc3)c(SCC(=O)N3CCCC3)nc2c(OC)c1OC,105%
1,Cc1ccc2[nH]c(C)c(CCNC(=O)c3cc(S(=O)(=O)N(C)C)c(Cl)cc3Cl)c2c1,94.4%
22,O=C(Cn1c(=O)sc2cc(S(=O)(=O)N3CCOCC3)ccc21)N1CCc2ccccc2C1,101%
15,CCOc1cc(C2C(C(=O)OCCOC)=C(C)NC3=C2C(=O)CC(c2ccc(Cl)cc2)C3)cc(Br)c1O (centres undefined),98.2%
